In the supplement of paper PMC10849652:
Some of the results follow.

Amino acid sequences for entries named in this document (tags omitted). A change or cut given only in a name is not applied to a line headed by its entry.
UniProt O60291: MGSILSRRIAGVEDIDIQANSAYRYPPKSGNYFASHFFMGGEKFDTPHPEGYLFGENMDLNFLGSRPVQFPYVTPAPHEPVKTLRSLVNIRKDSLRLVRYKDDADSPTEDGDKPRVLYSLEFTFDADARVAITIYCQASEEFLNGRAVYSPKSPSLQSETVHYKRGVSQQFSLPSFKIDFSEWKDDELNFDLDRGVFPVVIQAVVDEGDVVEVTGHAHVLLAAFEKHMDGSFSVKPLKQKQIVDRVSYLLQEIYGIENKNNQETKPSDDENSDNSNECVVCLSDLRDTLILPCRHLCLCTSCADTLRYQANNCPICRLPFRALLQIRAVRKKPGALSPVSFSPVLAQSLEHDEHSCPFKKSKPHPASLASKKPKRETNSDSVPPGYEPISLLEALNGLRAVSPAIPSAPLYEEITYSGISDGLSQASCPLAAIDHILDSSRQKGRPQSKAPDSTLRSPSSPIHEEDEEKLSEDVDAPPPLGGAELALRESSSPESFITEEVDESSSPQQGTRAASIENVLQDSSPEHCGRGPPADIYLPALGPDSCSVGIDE
UniProt Q99550: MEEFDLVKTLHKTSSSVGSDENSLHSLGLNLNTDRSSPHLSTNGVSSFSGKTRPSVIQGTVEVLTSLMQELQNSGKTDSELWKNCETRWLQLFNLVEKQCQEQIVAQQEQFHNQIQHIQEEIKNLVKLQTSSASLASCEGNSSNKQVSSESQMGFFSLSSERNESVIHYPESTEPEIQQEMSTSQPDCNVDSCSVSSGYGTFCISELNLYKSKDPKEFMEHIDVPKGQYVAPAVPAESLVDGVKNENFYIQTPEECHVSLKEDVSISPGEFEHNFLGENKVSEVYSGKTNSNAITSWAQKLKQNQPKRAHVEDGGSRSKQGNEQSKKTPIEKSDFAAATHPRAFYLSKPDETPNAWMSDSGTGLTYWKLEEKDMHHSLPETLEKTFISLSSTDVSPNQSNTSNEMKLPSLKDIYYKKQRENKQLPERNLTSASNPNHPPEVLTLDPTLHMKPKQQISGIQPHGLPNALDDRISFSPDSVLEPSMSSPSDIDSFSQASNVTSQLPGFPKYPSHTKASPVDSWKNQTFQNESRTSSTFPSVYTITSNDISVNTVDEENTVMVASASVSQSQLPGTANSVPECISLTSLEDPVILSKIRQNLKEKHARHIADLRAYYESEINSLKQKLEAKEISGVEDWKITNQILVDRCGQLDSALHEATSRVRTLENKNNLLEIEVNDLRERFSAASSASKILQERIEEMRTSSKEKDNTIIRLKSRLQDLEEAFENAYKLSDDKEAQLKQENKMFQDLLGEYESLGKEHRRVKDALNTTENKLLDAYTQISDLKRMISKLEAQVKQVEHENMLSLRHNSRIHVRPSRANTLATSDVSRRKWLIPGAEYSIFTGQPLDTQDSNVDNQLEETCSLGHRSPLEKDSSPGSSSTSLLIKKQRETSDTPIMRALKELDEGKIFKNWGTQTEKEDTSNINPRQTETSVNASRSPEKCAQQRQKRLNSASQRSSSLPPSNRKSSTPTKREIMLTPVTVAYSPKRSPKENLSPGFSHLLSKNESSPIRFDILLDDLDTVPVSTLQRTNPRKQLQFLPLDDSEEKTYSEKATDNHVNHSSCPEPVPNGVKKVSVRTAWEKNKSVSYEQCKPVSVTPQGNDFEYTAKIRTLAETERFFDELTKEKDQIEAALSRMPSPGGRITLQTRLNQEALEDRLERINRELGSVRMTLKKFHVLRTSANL
UniProt O75030: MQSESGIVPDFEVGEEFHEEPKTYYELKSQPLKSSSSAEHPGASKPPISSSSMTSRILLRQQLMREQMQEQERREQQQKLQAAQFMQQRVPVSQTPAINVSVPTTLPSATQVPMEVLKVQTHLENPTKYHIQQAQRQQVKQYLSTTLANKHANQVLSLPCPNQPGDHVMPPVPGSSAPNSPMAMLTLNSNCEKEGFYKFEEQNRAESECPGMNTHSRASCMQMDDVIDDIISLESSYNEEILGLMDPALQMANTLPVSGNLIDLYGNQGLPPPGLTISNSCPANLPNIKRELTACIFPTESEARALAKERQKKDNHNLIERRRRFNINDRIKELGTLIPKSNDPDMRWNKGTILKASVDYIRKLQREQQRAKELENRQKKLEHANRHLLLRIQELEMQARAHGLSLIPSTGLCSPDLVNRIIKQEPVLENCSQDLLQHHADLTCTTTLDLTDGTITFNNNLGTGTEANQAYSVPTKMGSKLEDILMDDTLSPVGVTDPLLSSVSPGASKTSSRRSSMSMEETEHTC
UniProt Q9NP71: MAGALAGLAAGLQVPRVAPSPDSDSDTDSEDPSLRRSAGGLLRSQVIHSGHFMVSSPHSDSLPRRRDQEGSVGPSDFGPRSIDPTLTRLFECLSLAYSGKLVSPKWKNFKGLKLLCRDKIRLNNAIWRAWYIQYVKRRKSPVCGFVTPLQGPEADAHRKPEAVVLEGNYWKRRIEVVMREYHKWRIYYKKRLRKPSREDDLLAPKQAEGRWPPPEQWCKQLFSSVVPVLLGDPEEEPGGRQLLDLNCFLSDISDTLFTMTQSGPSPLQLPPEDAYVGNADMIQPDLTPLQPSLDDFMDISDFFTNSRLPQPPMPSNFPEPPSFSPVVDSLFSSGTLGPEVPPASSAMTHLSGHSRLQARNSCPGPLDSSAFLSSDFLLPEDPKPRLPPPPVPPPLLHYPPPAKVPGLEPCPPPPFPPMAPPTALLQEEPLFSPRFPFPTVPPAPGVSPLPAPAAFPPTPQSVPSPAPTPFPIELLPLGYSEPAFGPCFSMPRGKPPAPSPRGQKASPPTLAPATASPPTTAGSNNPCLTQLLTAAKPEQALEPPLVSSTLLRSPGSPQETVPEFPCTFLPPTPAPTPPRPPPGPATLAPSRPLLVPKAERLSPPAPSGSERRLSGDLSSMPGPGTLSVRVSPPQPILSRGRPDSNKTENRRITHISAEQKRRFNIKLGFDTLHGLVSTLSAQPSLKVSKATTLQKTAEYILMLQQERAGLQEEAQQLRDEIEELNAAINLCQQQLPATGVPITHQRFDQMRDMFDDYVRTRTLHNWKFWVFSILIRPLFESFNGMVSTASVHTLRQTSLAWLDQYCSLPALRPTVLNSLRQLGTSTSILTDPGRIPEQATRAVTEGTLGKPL
UniProt Q4G0A6: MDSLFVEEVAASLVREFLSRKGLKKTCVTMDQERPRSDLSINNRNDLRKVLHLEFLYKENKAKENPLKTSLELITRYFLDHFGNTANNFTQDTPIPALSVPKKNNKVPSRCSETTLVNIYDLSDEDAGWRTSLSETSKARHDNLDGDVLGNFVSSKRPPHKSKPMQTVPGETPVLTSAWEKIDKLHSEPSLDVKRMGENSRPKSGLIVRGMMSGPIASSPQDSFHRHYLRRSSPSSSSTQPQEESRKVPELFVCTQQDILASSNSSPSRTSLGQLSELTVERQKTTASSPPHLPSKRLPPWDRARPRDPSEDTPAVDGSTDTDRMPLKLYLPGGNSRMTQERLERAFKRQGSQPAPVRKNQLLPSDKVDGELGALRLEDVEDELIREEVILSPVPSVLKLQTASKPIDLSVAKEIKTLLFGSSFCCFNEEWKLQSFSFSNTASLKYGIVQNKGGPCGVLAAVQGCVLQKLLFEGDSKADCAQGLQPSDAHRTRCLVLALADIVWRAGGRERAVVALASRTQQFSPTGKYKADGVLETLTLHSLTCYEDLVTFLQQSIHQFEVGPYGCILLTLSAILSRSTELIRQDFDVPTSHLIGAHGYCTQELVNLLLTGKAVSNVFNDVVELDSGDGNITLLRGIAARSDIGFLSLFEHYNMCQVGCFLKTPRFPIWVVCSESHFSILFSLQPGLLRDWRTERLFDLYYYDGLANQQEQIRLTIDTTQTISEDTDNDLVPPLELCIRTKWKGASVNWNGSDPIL
UniProt Q9H8M7: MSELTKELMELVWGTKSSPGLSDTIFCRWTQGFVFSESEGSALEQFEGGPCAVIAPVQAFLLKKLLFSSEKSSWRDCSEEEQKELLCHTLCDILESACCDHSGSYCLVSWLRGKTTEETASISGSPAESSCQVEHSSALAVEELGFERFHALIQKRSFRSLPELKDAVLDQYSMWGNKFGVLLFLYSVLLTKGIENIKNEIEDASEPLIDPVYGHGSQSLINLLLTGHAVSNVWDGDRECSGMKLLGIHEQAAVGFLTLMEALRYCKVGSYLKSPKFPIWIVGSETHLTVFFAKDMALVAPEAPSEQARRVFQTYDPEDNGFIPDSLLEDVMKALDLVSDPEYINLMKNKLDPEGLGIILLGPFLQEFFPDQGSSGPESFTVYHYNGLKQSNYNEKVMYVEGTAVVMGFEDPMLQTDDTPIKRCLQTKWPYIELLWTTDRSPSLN
UniProt Q8NB16: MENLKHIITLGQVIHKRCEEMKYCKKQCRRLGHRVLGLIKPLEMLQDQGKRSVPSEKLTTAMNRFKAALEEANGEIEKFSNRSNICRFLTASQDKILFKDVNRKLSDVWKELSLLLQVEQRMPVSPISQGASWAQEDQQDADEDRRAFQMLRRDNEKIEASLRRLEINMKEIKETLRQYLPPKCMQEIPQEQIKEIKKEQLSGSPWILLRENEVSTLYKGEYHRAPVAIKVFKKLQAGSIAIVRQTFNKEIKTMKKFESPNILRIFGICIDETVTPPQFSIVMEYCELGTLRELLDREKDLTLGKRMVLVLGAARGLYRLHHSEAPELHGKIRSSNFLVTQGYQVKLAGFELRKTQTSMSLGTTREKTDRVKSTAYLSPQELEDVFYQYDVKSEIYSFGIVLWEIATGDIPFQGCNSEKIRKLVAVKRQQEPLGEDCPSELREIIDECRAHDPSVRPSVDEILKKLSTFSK
UniProt Q15773: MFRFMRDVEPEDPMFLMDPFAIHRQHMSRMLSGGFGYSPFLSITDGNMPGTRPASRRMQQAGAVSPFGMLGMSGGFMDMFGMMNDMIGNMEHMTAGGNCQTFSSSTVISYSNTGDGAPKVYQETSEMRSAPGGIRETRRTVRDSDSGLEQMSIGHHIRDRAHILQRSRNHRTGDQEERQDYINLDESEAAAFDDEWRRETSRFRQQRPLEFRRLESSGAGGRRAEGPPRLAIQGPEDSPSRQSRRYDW
UniProt Q7Z6M3: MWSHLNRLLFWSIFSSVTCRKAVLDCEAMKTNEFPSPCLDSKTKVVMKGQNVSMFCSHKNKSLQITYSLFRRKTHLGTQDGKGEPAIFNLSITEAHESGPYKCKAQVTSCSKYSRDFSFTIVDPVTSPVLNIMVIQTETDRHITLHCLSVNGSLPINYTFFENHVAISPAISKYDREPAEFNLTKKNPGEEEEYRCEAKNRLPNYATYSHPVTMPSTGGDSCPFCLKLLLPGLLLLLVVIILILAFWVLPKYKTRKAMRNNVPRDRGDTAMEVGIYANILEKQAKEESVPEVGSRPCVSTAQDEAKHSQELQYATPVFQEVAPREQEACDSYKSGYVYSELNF
UniProt Q8TD10: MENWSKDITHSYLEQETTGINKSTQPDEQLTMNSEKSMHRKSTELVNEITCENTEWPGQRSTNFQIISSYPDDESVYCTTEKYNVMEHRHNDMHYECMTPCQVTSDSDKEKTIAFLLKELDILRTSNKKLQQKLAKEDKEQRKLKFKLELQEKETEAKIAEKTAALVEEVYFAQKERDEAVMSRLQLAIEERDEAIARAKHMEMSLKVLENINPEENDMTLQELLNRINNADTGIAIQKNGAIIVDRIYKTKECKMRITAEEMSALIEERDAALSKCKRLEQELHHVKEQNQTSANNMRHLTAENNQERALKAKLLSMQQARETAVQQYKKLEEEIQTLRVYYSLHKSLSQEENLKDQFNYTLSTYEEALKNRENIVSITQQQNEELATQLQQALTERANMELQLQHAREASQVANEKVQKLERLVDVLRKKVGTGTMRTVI
UniProt Q95460, whole entry, looked up: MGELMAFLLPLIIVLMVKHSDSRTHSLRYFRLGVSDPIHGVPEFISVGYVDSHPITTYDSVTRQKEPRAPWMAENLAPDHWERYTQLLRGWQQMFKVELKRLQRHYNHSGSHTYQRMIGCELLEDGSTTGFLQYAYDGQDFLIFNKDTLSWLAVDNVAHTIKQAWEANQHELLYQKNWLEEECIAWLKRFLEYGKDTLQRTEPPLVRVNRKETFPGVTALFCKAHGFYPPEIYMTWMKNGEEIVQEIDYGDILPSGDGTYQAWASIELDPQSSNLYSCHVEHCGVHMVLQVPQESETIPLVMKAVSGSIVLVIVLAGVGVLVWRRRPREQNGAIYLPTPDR
UniProt Q7L9L4: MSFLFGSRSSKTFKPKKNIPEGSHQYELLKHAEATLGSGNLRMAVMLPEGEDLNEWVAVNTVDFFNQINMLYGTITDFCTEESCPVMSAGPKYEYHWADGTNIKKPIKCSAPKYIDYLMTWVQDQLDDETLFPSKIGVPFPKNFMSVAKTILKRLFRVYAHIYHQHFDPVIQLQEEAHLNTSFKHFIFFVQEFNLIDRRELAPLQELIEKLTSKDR
UniProt Q9NPA3, whole entry, looked up: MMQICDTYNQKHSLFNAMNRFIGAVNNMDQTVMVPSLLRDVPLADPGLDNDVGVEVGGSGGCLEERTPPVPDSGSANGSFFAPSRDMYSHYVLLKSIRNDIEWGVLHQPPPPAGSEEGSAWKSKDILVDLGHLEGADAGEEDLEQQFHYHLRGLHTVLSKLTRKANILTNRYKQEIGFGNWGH

Legend:
Experiment in all cases: log2 fold change, soluble protein after heating vs DMSO (PISA); higher = thermal stabilisation; K562 lysate, 10 uM; active = over 0.2 and 3.5 SD of the protein, either way, in both replicates (recomputed)
[1] = compound: Cc1nc(Nc2ncc(C(=O)Nc3c(C)cccc3Cl)s2)cc(N2CCN(CCO)CC2)n1 [dasatinib]
Procedure, shortened: (§1)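 Following dounce homogenisation of K562 pellets in PBS pH 7.4 with 1 mM MgCl2, crude extract at 1 mg/mL protein was incubated for 30 min with 10 μM compound. Aliquots were then heated for 3 min over 48°C-58°C and pooled, NP-40 was added to 0.5% at 4°C, and soluble protein was recovered as the supernatant at 21,000xg for 90 min. Channel-sum-equalised TMTpro 16plex LC-MS/MS quantified this protein. Each value, from duplicates, is a log-two fold change in thermal stability relative to solvent controls.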

[2] = compound: Cn1cc(-c2ccc3c(c2)CCN3C(=O)Cc2cccc(C(F)(F)F)c2)c2c(N)ncnc21
Procedure, shortened: as §1

[3] = compound: Cn1cc(CNCC2CCN(c3ncc(C(=O)NO)cn3)CC2)c2ccccc21 [quisinostat]
Procedure, shortened: as §1

[4] = compound: NC(=O)Nc1cc(-c2cccc(F)c2)sc1C(=O)N[C@H]1CCCNC1
Procedure, shortened: as §1

[5] = compound: NC(=O)c1cnc(N[C@@H]2CCCC[C@@H]2N)nc1Nc1cccc(-n2nccn2)c1
Procedure, shortened: as §1

[6] = compound: NC1(c2ccc(-c3nc4ccn5c(=O)[nH]nc5c4cc3-c3ccccc3)cc2)CCC1
Procedure, shortened: as §1

[7] = compound: Cc1cn(-c2cc(NC(=O)c3ccc(C)c(Nc4nccc(-c5cccnc5)n4)c3)cc(C(F)(F)F)c2)cn1 [nilotinib]
Procedure, shortened: as §1

[8] = compound: Cc1nc(Nc2n[nH]c3c2CN(C(=O)N[C@H](CN(C)C)c2ccccc2)C3(C)C)c2sccc2n1
Procedure, shortened: as §1

[9] = compound: Cc1ncc(-c2ccnc(Nc3ccc(S(C)(=O)=O)cc3)n2)n1C(C)C
Procedure, shortened: as §1

[10] = compound: Cn1cncc1[C@@](N)(c1ccc(Cl)cc1)c1ccc2c(c1)c(-c1cccc(Cl)c1)cc(=O)n2C [tipifarnib]
Procedure, shortened: as §1

Measured: log2 fold change

MGRN1 isoform 2 (UniProt O60291)
inactive: [1] -0.132 | [2] 0.062 | [3] -0.17 | [4] -0.107 | [5] -0.056 | [6] -0.107

MIIP (UniProt Q5JXC2)
inactive: [3] -0.02 | [4] 0.015 | [6] -0.165

MITD1 (UniProt Q8WV92)
inactive: [7] -0.022 | [8] 0.089 | [1] 0.011 | [9] -0.09 | [2] 0.027 | [3] 0.027 | [10] 0.022 | [4] 0.03 | [5] 0.07 | [6] -0.047

MNX1 (UniProt P50219)
inactive: [1] 0.007 | [2] -0.039 | [3] -0.008 | [4] 0.103 | [5] -0.177 | [6] 0.118

MPHOSPH9 (UniProt Q99550)
inactive: [3] -0.085 | [4] 0.039 | [6] 0.112

MIER3 isoform 2 (UniProt Q7Z3K6)
inactive: [7] -0.107 | [8] 0.032 | [1] -0.023 | [9] 0.019 | [2] -0.016 | [3] 0.037 | [10] 0.016 | [4] 0.051 | [6] -0.011

MIDEAS, A0A1C7CYX1
inactive: [1] -0.086 | [2] -0.122 | [3] -0.33 | [4] 0.168 | [5] -0.027 | [6] -0.097

MPP5 (UniProt Q8N3R9)
inactive: [7] 0.015 | [8] -0.013 | [1] 0.028 | [9] -0.069 | [2] 0.009 | [3] -0.052 | [10] 0.142 | [4] 0.002 | [6] -0.053

MITF (UniProt O75030)
inactive: [1] 0.038 | [2] 0.054 | [3] -0.01 | [4] 0.006 | [6] 0.043

MKKS (UniProt Q9HB66)
inactive: [5] -0.023 | [6] 0.013

Reprinted from above (2 entries):
MNX1 (UniProt P50219)
inactive: [1] 0.007 | [2] -0.039 | [3] -0.008 | [4] 0.103 | [5] -0.177 | [6] 0.118

MPHOSPH9 (UniProt Q99550)
inactive: [3] -0.085 | [4] 0.039 | [6] 0.112

Following part

MLXIPL (UniProt Q9NP71)
inactive: [3] -0.027 | [4] 0.044 | [6] -0.007

MINDY4 (UniProt Q4G0A6)
inactive: [7] -0.088 | [8] 0.171 | [1] -0.118 | [9] 0.028 | [2] -0.244 | [10] 0.078

MKKS (UniProt Q9NPJ1)
inactive: [1] 0.001 | [2] 0.074

MPC1 (UniProt Q9Y5U8)
inactive: [1] 0 | [2] 0.03 | [3] 0.036 | [4] 0.068 | [5] -0.033 | [6] 0.054

MIER2 (UniProt Q8N344)
inactive: [1] 0.174 | [2] -0.096 | [6] -0.121

MINDY3 (UniProt Q9H8M7)
inactive: [7] 0.006 | [8] -0.006 | [1] -0.035 | [9] 0.028 | [2] 0.095 | [3] 0.009 | [10] -0.035 | [4] 0.037 | [5] 0.006 | [6] 0.038

MLKL (UniProt Q8NB16)
inactive: [7] -0.011 | [8] -0.036 | [9] -0.169 | [3] -0.141 | [10] 0.037 | [4] 0.015 | [5] -0.039 | [6] -0.126

MRPL22 (UniProt Q9NWU5)
inactive: [7] 0.04 | [8] 0.017 | [9] 0.03 | [3] 0.025 | [10] -0.003 | [4] -0.001 | [5] -0.073 | [6] 0.081

MRE11 (UniProt F8W7U8)
inactive: [5] 0.034

MNT (UniProt Q99583)
inactive: [1] 0.161 | [2] -0.088 | [3] -0.089 | [4] 0.015 | [5] -0.015 | [6] 0.038

MLF2 (UniProt Q15773)
inactive: [7] -0.1 | [8] 0.013 | [1] -0.059 | [9] -0.059 | [2] -0.083 | [3] -0.028 | [10] -0.071 | [4] 0.01 | [6] -0.079

MMACHC (UniProt Q9Y4U1)
inactive: [7] -0.099 | [8] -0.065 | [1] 0.029 | [9] 0.039 | [2] 0.15 | [10] -0.028

MILR1 (UniProt Q7Z6M3)
inactive: [3] 0.003 | [4] 0.055 | [6] -0.198

MIPOL1 (UniProt Q8TD10)
inactive: [1] 0.009 | [2] 0 | [3] -0.596 | [4] -0.118 | [5] 0.171 | [6] -0.039

MOCS3 (UniProt O95396)
inactive: [7] -0.008 | [8] -0.054 | [1] -0.056 | [9] 0.056 | [2] -0.049 | [3] -0.219 | [10] 0.045 | [4] -0.054 | [6] -0.03

MR1 (UniProt Q95460)
inactive: [1] -0.03 | [2] -0.052 | [6] -0.06

MOB1B isoform 2 (UniProt Q7L9L4)
inactive: [7] 0.025 | [8] -0.006 | [1] 0.003 | [9] 0.036 | [2] 0.002 | [3] -0.05 | [10] -0.029 | [4] 0.024 | [5] -0.007 | [6] -0.042

MMTAG2 (UniProt Q9BU76)
inactive: [7] -0.008 | [8] -0.121 | [1] 0.018 | [9] 0.034 | [2] 0.005 | [3] -0.047 | [10] 0.021 | [4] -0.019 | [5] 0.013 | [6] 0.005

MGMT (UniProt P16455)
inactive: [1] -0.098 | [2] -0.102

MIGA2 (UniProt Q7L4E1)
inactive: [1] -0.056 | [2] -0.007 | [6] -0.239

MID1IP1 (UniProt Q9NPA3)
inactive: [7] -0.048 | [8] 0.013 | [1] -0.04 | [9] 0.021 | [2] -0.036 | [3] -0.012 | [10] 0 | [4] 0.027 | [6] 0.126
